Data published in publication PMC8028089.
Results are given in words; binding and its absence hold for the method and conditions named. Binding seen in cells or lysates may run through a third protein. Some results given as binding are weak or reduced against the parent protein; the word gives no strength.

Experiments:
[1] = target: T1, MAP17 (human (endogenous in SMMC-7721 and HCC-LM3)) (UniProt Q13113); test: co-IP; supernatants pre-incubated with protein A/G PLUS agarose, then 2 ug MAP17 antibodies or control IgG overnight at 4 °C; protein A/G agarose; western blotting
T1 sequence: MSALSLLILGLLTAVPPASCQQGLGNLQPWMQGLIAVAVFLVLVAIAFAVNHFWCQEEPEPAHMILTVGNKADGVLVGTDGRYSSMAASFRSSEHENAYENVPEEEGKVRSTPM

[2] = target: T1, MAP17 (human (endogenous in SMMC-7721 and HCC-LM3)); test: proximity ligation; SMMC-7721 and HCC-LM3 cells fixed with 4% paraformaldehyde, permeabilised with 0.1% Triton-X; mouse anti-PDZK1 and rabbit anti-MAP17 primary antibodies; foci seen by confocal microscopy

- binding [1]: binds
- binding [2]: binds
B1: PDZK1 (protein, UniProt Q5T2W1 1-519)
chain: MTSTFNPRECKLSKQEGQNYGFFLRIEKDTEGHLVRVVEKCSPAEKAGLQDGDRVLRINGVFVDKEEHMQVVDLVRKSGNSVTLLVLDGDSYEKAVKTRVDLKELGQSQKEQGLSDNILSPVMNGGVQTWTQPRLCYLVKEGGSYGFSLKTVQGKKGVYMTDITPQGVAMRAGVLADDHLIEVNGENVEDASHEEVVEKVKKSGSRVMFLLVDKETDKRHVEQKIQFKRETASLKLLPHQPRIVEMKKGSNGYGFYLRAGSEQKGQIIKDIDSGSPAEEAGLKNNDLVVAVNGESVETLDHDSVVEMIRKGGDQTSLLVVDKETDNMYRLAHFSPFLYYQSQELPNGSVKEAPAPTPTSLEVSSPPDTTEEVDHKPKLCRLAKGENGYGFHLNAIRGLPGSFIKEVQKGGPADLAGLEDEDVIIEVNGVNVLDEPYEKVVDRIQSSGKNVTLLVCGKKAYDYFQAKKIPIVSSLADPLDTPPDSKEGIVVESNHDSHMAKERAHSTASHSSSNSEDTEM
